Results: article doi:10.1101/2025.04.16.649141
Results are given in words; binding and its absence hold for the method and conditions named. Some binding calls cover weakened binding; strength is not graded here. Where a sequence is shown, tags or fusion partners need not be part of it.

Molecular target: T1, membrane-anchored BMP4 (myc-BMP4-GPI) (Xenopus) (UniProt P30885)
T1 sequence: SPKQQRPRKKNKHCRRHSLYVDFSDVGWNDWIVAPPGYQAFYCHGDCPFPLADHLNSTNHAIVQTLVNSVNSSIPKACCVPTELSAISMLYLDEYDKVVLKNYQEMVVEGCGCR

binding: binds
B1: Cerberus fused with monomeric Venus (Cer-mV) (protein, UniProt P70041 21-270)
chain: KHSEGRERTKTYSLNSRGYFRKERGARRSKILLVNTKGLDEPHIGHGDFGLVAELFDSTRTHTNRKEPDMNKVKLFSTVAHGNKSARRKAYNGSRRNIFSRRSFDKRNTEVTEKPGAKMFWNNFLVKMNGAPQNTSHGSKAQEIMKEACKTLPFTQNIVHENCDRMVIQNNLCFGKCISLHVPNQQDRRNTCSHCLPSKFTLNHLTLNCTGSKNVVKVVMMVEECTCEAHKSNFHQTAQFNMDTSTTLHH
